Data published in US20150064287A1, “METHOD FOR TREATING ABNORMAL POLYGLUTAMINE-MEDIATED DISEASES” (NATIONAL TAIWAN NORMAL UNIVERSITY, priority 2013, published 2015).
Some entries share one result that the patent states for a list of compounds. Some ranges recur; such a range may be that of the whole group of compounds.

Experiments:
[1] = system: reactive oxygen species (ROS); assay: ROS analysis (CellROX Deep Red, flow cytometry) in 293 ATXN3/Q75-GFP cells; format: cell-based, human; conditions: range over genipin, geniposide 500 nM, crocin 100 nM, extract 10 μg/mL; 814 without pretreatment; doxycycline and oxaliplatin 6 days
ATXN3/Q75-GFP = ATXN3/Q75-GFP green fluorescence by flow cytometry; format: cell-based, human; conditions: range over groups with or without pretreatment (genipin, geniposide 500 nM, crocin 100 nM, extract 10 μg/mL); doxycycline 6 days; no significant difference

Structure (SMILES) | ROS red fluorescence [1] | ATXN3/Q75-GFP fluorescence expression (ATXN3/Q75-GFP)
COC(=O)C1=CO[C@@H](O)[C@@H]2C(CO)=CC[C@H]12 [genipin] | 715-736 | 215-228
CC(/C=C/C=C(\C)C(=O)O[C@@H]1O[C@H](CO[C@@H]2O[C@H](CO)[C@@H](O)[C@H](O)[C@H]2O)[C@@H](O)[C@H](O)[C@H]1O)=C\C=C\C=C(C)\C=C\C=C(/C)C(=O)O[C@@H]1O[C@H](CO[C@@H]2O[C@H](CO)[C@@H](O)[C@H](O)[C@H]2O)[C@@H](O)[C@H](O)[C@H]1O [crocin] | 715-736 | –
